Data: publication PMC12560144
Results are given in words; binding and its absence hold for the method and conditions named. In cells and extracts the contact can be indirect. Here binding means that the protein was enriched with, or labelled near, the bait; the list need not be complete. Sequences can lack the tags named with a protein.

Biological target: T1, 3xFLAG-NRF2 (human) (UniProt Q16236)
T1 sequence: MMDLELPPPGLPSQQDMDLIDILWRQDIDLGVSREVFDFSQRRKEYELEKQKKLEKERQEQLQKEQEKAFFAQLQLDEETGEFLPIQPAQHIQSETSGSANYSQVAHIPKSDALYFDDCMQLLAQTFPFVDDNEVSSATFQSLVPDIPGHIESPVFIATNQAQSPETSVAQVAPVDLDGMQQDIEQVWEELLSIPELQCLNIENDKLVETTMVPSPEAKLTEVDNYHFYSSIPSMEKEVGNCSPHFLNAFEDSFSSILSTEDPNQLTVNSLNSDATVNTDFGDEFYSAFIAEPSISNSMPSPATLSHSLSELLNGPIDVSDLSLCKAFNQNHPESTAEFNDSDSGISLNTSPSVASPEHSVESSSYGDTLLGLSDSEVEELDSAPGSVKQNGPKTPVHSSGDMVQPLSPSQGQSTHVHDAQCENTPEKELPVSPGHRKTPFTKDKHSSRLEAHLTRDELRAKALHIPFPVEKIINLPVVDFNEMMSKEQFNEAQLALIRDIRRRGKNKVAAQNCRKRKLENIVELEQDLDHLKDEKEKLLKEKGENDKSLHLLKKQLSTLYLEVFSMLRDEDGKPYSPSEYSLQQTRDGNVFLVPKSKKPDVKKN
Assay: affinity purification with mass spectrometry; 3xFLAG-NRF2 or 3xFLAG-NRF2ΔETGE purified on αFLAG M2 resin from lysates of stably transduced HEK293T cells treated with MLN4924 (500 nM, 16 h); 20 mM HEPES pH 7.5, 150 mM NaCl, 0.2% Nonidet P-40, 4°C; eluted with 3xFLAG peptide; MudPIT, ComPASS

“βTrCP (endogenous, 293T cells) (human (endogenous in HEK293T))” was tested, and the binding was “binds”.
